# Laboratory results taken from patent publication US20260108546A1 (ELI LILLY AND COMPANY, priority 2024, published 2026).
# Some entries share one result that the patent states for a list of compounds.
# Biological target: T1, hGIP-R (Homo sapiens, UniProt P48546)
# T1 construct: expressed in transfected cells; host or cells: HEK-293 clonal cell lines
# T1 sequence (P48546 22-466): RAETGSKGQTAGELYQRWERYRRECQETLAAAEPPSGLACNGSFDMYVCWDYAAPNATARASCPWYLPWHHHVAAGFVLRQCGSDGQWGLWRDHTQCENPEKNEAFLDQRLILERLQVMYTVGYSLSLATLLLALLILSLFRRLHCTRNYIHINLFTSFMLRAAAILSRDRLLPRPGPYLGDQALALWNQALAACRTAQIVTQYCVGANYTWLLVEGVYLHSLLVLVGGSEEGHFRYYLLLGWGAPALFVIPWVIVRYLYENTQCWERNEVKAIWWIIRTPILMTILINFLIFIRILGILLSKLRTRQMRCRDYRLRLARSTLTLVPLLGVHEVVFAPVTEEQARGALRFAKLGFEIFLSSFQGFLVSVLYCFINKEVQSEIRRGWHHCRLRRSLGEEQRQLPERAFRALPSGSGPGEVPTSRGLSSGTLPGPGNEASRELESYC
# Experiment: Functional hGIP-R Assay (cAMP formation, HTRF)
# Assay type: cell-based
# Conditions: cAMP formation in HEK-293 clonal cell lines expressing hGIP-R; 30 min at 37° C.; 0.1% bovine casein; relative EC50 vs. maximal response of human GIP (1-42) OH
# Summary of the method: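 HEK-293 cells expressing hGIP-R were given a 20-point compound series in DMEM with 0.1% casein, 250 μM IBMX, 1% DMSO, 30 min at 37 °C. cAMP was read by HTRF against a standard curve, expressed as % of human GIP (1-42) OH maximum; EC50 and Emax came from four-parameter fits.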
row,Compound,EC50
1,"Cn1cc(C[C@@H](NC(=O)[C@H]2C[C@@H]2c2ccc(-c3cnc4nn(C)cc4c3)cc2)C(=O)NC(C)(C)Cn2nc(C(F)(F)F)cc2-n2ccccc2=O)cn1 [Example 20, (1S,2S)-N-((R)-1-((2-Methyl-1-(5-(2-oxopyridin-1(2H)-yl)-3-(trifluoromethyl)-1H-pyrazol-1-yl)propan-2-yl)amino)-3-(1-methyl-1H-pyrazol-4-yl)-1-oxopropan-2-yl)-2-(4-(2-methyl-2H-pyrazolo[3,4-b]pyridin-5-yl)phenyl) cyclopropane-1-carboxamide]",≤ 300 nM
2,"CC(C)(Cn1cc(C(F)(F)F)cn1)NC(=O)[C@@H](Cc1cnc2ncccn12)NC(=O)[C@H]1C[C@@H]1c1ccc(-c2cnc3nccn3c2)cc1 [Example 47, (1S,2S)-N-((R)-3-(Imidazo[1,2-a]pyrimidin-3-yl)-1-((2-methyl-1-(4-(trifluoromethyl)-1H-pyrazol-1-yl)propan-2-yl)amino)-1-oxopropan-2-yl)-2-(4-(imidazo[1,2-a]pyrimidin-6-yl)phenyl) cyclopropane-1-carboxamide]",≤ 300 nM
3,"CC(C)(Cc1ccc(F)cn1)NC(=O)[C@@H](Cc1cnc2ncccn12)NC(=O)[C@H]1C[C@@H]1c1ccc(-c2cnc3nc(C(F)(F)F)cn3c2)cc1 [Example 85, (1S,2S)-N-((R)-1-((1-(5-Fluoropyridin-2-yl)-2-methylpropan-2-yl)amino)-3-(imidazo[1,2-a]pyrimidin-3-yl)-1-oxopropan-2-yl)-2-(4-(2-(trifluoromethyl)imidazo[1,2-a]pyrimidin-6-yl)phenyl)cyclopropane-1-carboxamide]",≤ 300 nM
4,"[2H]C([2H])([2H])n1cc(C[C@H](C(=O)NC(C)(C)Cn2nc(C(F)(F)F)cc2-c2cnc(C)nc2)N2CCC3(CC3c3ccc(-c4cnc5nn(C)cc5c4)nc3C(F)(F)F)C2=O)cn1 (single isomer, unassigned; isomer 1) [Example 115]",≤ 300 nM
5,"Cc1nc(-c2cnc3nn(C4CC4)cc3c2)ccc1[C@H]1C[C@@]12CCN([C@H](Cc1cnn(C(F)F)c1)C(=O)NC(C)(C)Cn1nc(C(F)(F)F)cc1-c1ccn(C3CC3)c(=O)c1)C2=O [Example 169, (R)—N-(1-(5-(1-cyclopropyl-2-oxo-1,2-dihydropyridin-4-yl)-3-(trifluoromethyl)-1H-pyrazol-1-yl)-2-methylpropan-2-yl)-2-((1R,3R)-1-(6-(2-cyclopropyl-2H-pyrazolo[3,4-b]pyridin-5-yl)-2-methylpyridin-3-yl)-4-oxo-5-azaspiro[2.4]heptan-5-yl)-3-(1-(difluoromethyl)-1H-pyrazol-4-yl)propanamide]",≤ 300 nM
6,"Cn1cc(C[C@@H](NC(=O)[C@H]2C[C@@H]2c2ccc(-c3cnc4nn(C)cc4c3)nc2C(F)(F)F)C(=O)NC(C)(C)Cn2cc(C(F)(F)F)cn2)cn1 [Example 22, (1S,2S)-N-((R)-1-((2-Methyl-1-(4-(trifluoromethyl)-1H-pyrazol-1-yl)propan-2-yl)amino)-3-(1-methyl-1H-pyrazol-4-yl)-1-oxopropan-2-yl)-2-(6-(2-methyl-2H-pyrazolo[3,4-b]pyridin-5-yl)-2-(trifluoromethyl)pyridin-3-yl)cyclopropane-1-carboxamide]",≤ 300 nM
7,"Cc1cn2cc(-c3ccc([C@H]4C[C@@]45CCN([C@H](Cc4cnn(C(F)F)c4)C(=O)NC(C)(C)Cn4nc(C(F)(F)F)cc4-c4ccc(C(C)(C)O)nc4)C5=O)c(C)n3)cnc2n1 [Example 178, (R)-3-(1-(difluoromethyl)-1H-pyrazol-4-yl)-N-(1-(5-(6-(2-hydroxypropan-2-yl)pyridin-3-yl)-3-(trifluoromethyl)-1H-pyrazol-1-yl)-2-methylpropan-2-yl)-2-((1R,3R)-1-(2-methyl-6-(2-methylimidazo[1,2-a]pyrimidin-6-yl)pyridin-3-yl)-4-oxo-5-azaspiro[2.4]heptan-5-yl)propanamide]",≤ 300 nM
